From the supplement of paper PMC12823440, “Inhibitors supercharge kinase turnover through native proteolytic circuits” (Nature, 2025)
Counter-ions that a name gives are not always drawn. Some of the results follow. Hit calls seldom repeat between salt and free forms of one compound.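 Kinases were expressed as nanoluciferase fusions in K562 cells and luminescence was read every 4 h between 2 and 18 h as percent of control, DMSO set to 100% and a positive control to 0%. A time point counts as decreased when the signal drops significantly (2 sigma). The hit call is the authors' own, does not follow from the count of time points alone, and its rule is not shown.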

Chains of the proteins cited; added tags and fusions are not shown.
UniProt Q14289, whole entry, looked up: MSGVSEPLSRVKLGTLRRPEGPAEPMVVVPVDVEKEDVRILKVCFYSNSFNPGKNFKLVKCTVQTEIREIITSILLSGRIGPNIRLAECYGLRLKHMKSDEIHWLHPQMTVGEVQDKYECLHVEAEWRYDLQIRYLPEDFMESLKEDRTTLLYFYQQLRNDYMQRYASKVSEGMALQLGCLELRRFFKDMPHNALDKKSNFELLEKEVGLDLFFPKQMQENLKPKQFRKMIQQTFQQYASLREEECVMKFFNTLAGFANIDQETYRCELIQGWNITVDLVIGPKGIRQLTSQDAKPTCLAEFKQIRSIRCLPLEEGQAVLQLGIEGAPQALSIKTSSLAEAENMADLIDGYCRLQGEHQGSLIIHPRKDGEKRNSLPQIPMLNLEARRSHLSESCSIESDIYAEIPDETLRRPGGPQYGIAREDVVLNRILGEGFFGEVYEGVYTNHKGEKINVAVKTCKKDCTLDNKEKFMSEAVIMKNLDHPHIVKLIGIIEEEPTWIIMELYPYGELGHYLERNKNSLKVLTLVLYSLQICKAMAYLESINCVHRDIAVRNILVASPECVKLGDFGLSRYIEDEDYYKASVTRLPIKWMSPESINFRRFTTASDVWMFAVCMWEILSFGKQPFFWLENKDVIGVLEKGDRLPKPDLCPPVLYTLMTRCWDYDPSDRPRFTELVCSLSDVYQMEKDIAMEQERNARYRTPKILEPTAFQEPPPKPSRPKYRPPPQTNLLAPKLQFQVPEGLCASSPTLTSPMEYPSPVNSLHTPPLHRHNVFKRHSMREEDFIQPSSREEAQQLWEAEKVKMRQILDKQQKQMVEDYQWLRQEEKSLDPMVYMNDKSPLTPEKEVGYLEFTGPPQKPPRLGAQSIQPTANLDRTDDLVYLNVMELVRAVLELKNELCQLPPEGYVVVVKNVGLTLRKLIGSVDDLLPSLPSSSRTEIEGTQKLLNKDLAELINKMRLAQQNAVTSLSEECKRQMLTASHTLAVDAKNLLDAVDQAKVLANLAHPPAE

Biological target: PTK2B (UniProt Q14289)
Test: number of time points (of 5) at which kinase-Nluc abundance scored as decreased, DMSO-normalised (count); higher = more persistent destabilization
Settings: K562; 2-18 h

`C[C@@H]1COCCN1c1nc(-c2cnc(N)cc2C(F)F)nc(N2[C@H](C)COC[C@@H]2C)n1` (2.5 µM) and `O=[N+]([O-])c1ccc(Nc2nc(N3CCOCC3)nc(N3CCOCC3)n2)cc1` (10 µM) are the same in “number of time points” value: 0 for the first, 0 for the second.

`O=C(O)c1cc(=O)c2c(OCC(O)COc3cccc4oc(C(=O)O)cc(=O)c34)cccc2o1` [Cromolyn (sodium)] (10 µM) and `CCN(CC)c1cc2oc(=O)c(-c3nc4ccccc4o3)cc2cc1C` (2.5 µM) are the same in “number of time points” value: 0 for the first, 0 for the second.

`CCc1ccc(OCC(=O)Nc2ccc(F)c([N+](=O)[O-])c2)cc1` (10 µM) and `COc1cc(-c2cn[nH]c2)ccc1C(=O)Nc1ccc2c(c1)CCNCC2` (10 µM) are the same in “number of time points” value: 0 for the first, 0 for the second.

`CC(C)S(=O)(=O)c1ccc2nccc(Nc3ccc4scnc4c3)c2c1` (10 µM) and `O=C1NC(=Nc2c(Cl)cccc2Cl)S/C1=C\c1ccc2nccnc2c1` (2.5 µM) are the same in “number of time points” value: 0 for the first, 0 for the second.

`CN1CC[C@@H](c2c(O)cc(O)c3c(=O)cc(-c4ccc(C(F)(F)F)cc4Cl)oc23)[C@@H]1CO` [Voruciclib (hydrochloride)] (10 µM) and `CCc1cncnc1N1CCN(Cc2nc3ccc(C(F)(F)F)cc3[nH]2)CC1` (10 µM) are the same in “number of time points” value: 0 for the first, 0 for the second.

`CC(C)=CC(=O)O[C@H]1Cc2cc3ccc(=O)oc3cc2OC1(C)C` [Decursin] (10 µM) and `CN(C)S(=O)(=O)c1ccc2c(c1)/C(=C/c1cc3c([nH]1)CCCC3)C(=O)N2` (2.5 µM) are the same in “number of time points” value: 0 for the first, 0 for the second.

`CC(C)C[C@@H](C(=O)Nc1ccn(C[C@@H](O)CO)n1)N1CC(Oc2ccccc2Cl)=CC1=O` [Dorzagliatin] (10 µM) and `COc1nn(C)cc1Nc1nccc(-c2c[nH]c3c(NC(=O)[C@@H](C)N4CCN(C)CC4)cccc23)n1` (10 µM) are the same in “number of time points” value: 0 for the first, 0 for the second.

`CC(C)N1CCN(c2ccc(Nc3ncc4cc5n(c4n3)C3(CCCCC3)CNC5=O)nc2)CC1` [Lerociclib (dihydrochloride)] (2 µM) and `N#Cc1ccnc(Nc2cc(C3CCN(C4COC4)CC3)cc(N3CCC(F)(F)C3)n2)c1` (2.5 µM) are the same in “number of time points” value: 0 for the first, 0 for the second.

`CCCCCCCCCCCCCCCCOP(=O)([O-])OCC[N+](C)(C)C` [Miltefosine] (10 µM) and `Nc1ncnc2c1c(-c1ccc(Oc3ccccc3)cc1)nn2C1CCN(CCOCCOCCOc2ccc3c(c2)CN(C2CCC(=O)NC2=O)C3=O)CC1` (stereo not drawn) (2.5 µM) are the same in “number of time points” value: 0 for the first, 0 for the second.

Compared with `COCCNc1cc(NC(=O)N2CCCc3cc(CN4CCN(C)CC4=O)c(C=O)nc32)ncc1C#N` [Roblitinib] (10 µM), `CCc1cccc(CC)c1NC(=O)N1Cc2[nH]nc(NC(=O)c3ccc(N4CCN(C)CC4)cc3)c2C1` (2.5 µM) is higher in “number of time points” value: 0 for the first, 1 for the second.

`Cc1ccc(NC(=O)c2ccc(CN(CCN(C)C)C(=O)c3cccnc3)cc2)cc1Nc1nccc(-c2cccnc2)n1` [PDGFRα kinase inhibitor 1] (10 µM) and `Cc1cc(-c2ccnc(Nc3cnn(C)c3)n2)ccc1CNC(=O)N1CC(OC(C)C)C1` (10 µM) are the same in “number of time points” value: 0 for the first, 0 for the second.

`c1ccc(-c2nc(=NCCN3CCOCC3)sn2-c2ccccc2)cc1` [VP3.15 (dihydrobromide)] (10 µM) and `N#CC(c1ccnc(OCc2ccc(CN3CCOCC3)cc2)n1)c1nc2ccccc2s1` (stereo not drawn) [Bentamapimod] (2.5 µM) are the same in “number of time points” value: 0 for the first, 0 for the second.

`Cc1cnc(NC2CCOCC2)nc1-n1cnc(C(=O)N[C@H](CN)c2cc(F)cc(Cl)c2)c1` (10 µM) and `COc1cc(N2CCOCC2)ccc1NC(=O)c1csc(-c2cccnc2)n1` [IRAK inhibitor 6] (10 µM) are the same in “number of time points” value: 0 for the first, 0 for the second.

`Cc1c(-c2ccc(C(N)=O)c3[nH]c4cc(C(C)(C)O)ccc4c23)cccc1-n1cnc2ccccc2c1=O` (2.5 µM) and `O=Nc1c2[nH]c3ccccc3nc-2c2ccccc12` [IQ-1S (free acid)] (2.5 µM) are the same in “number of time points” value: 0 for the first, 0 for the second.

`CN(C)c1nc2c(Br)c(Br)c(Br)c(Br)c2[nH]1` (10 µM) and `Cc1cccc2c3c(ccc12)C(=O)C1=C(OCC1C)C3=O` (stereo not drawn) [Dihydroisotanshinone I] (2.5 µM) are the same in “number of time points” value: 0 for the first, 0 for the second.

`C[C@H](Nc1ncnc2[nH]cnc12)c1cc2ccc(F)cc2nc1-c1ccccn1` (10 µM) and `Cn1cc2cc(C(F)(F)c3nnc4ccc(-c5cnn(C6CC6)c5)nn34)c(F)cc2n1` [Bozitinib] (10 µM) are the same in “number of time points” value: 0 for the first, 0 for the second.

In the case of `CNc1nc(Nc2cn(C(C)(C)C#N)nc2C)ncc1C(F)(F)F` (10 µM), the “number of time points” value was 0.
